# Reference: PubChem BioAssay AID2685 (National Center for Advancing Translational Sciences (NCATS), 2010)
# The other results are listed elsewhere or left out. Further columns of the screen follow, without active or inactive calls. Most of these compounds were active or inconclusive in the main read-out, so they are no random draw. Potencies come from curve fits of mixed quality, noted in brackets.
# Assay: qHTS Assay for Lipid Storage Modulators in Drosophila S3 Cells;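 as to cell number change: cells counted by Cell Tracker Red CMTPX staining in the red channel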
# Conditions: BODIPY lipid droplet fluorescence, 18-24 h; for cell number change: measured here: cell count max response, cells fed with added oleic acid
# In short: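 Laser-scanning cytometry quantifies lipid droplet accumulation (500–530 nm total intensity; droplet/cell object ratio) in oleic acid-fed (400 uM added) Drosophila S3 cells treated with a concentration series. 20 uM Triacsin C defined 100% inhibition.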
# [1] = measured here: lipid fluorescence (Fed channel) AC50, cells fed with added oleic acid
# [2] = measured here: cell number channel AC50, cells fed with added oleic acid
SMILES,cell number change [%],AC50 [1],AC50 [2]
NS(=O)(=O)OC(CCc1ccccc1)C(Cl)(Cl)Cl (centres undefined),19.7,"20.6 µM [falling, single point]",–
COc1ccc(N2C(=O)/C(=C/c3ccc(C)o3)C(=O)NC2=S)c(OC)c1,-0.365,"0.731 µM [rising, full curve]",–
C=CCn1c(O)c(C(C)=Nc2ccc(NC(C)=O)cc2)c(=O)[nH]c1=O,-1.97,–,–
O=C(Cn1ncc2ccsc2c1=O)N1CCC2(CC1)OCCO2,12.6,"0.0058 µM [rising, full curve, poor fit]",–
Cc1cc(C)n(-c2ccc(NN=C(C#N)C#N)cc2)n1,-51.9,"18.4 µM [falling, single point]","18.4 µM [falling, single point]"
CCOc1ccc(/C=C2/C(=O)NC(=O)N(CCc3ccc(F)cc3)C2=O)cc1,-0.249,"1.84 µM [rising, partial curve, poor fit]",–
CC1SC2(CN3CCC2CC3)NC1=O (centres undefined),-2.82,–,–
CCCOC(=O)c1c(N)n(Cc2cccs2)c2nc3ccccc3nc12,-1.74,"0.517 µM [rising, full curve]","0.291 µM [rising, full curve]"
CCc1c(C)nc(N)nc1N1N=C1SCC(N)=O,31.3,"0.116 µM [rising, full curve, poor fit]","32.6 µM [rising, single point]"
C=C1C(=O)O[C@@H]2C[C@@H](C)[C@@H]3C=CC(=O)[C@@]3(C)[C@@H](OC(C)=O)[C@H]12,–,–,"6.51 µM [falling, partial curve]"
CCc1ccccc1N1C(=O)/C(=C/c2ccc(N3CCN(C)CC3)o2)C(=O)NC1=S,-31.1,"11.6 µM [falling, partial curve]","29.1 µM [falling, single point]"
OC(CCNCCc1c[nH]c2ccccc12)C(F)(F)F (centres undefined),-20.7,"3.66 µM [falling, full curve, poor fit]",–
C=CCN1C(=O)NC(=O)/C(=C/c2cnc(SC)nc2)C1=O,-52.1,"5.8 µM [falling, full curve, poor fit]","6.51 µM [falling, full curve]"
O=Cc1cn(Cc2ccc([N+](=O)[O-])cc2)c2ccccc12,4.7,"5.8 µM [rising, single point]",–
CCOc1cc2c(cc1OCC)-n1cccc1C(c1ccc(OC(F)F)cc1)NC2 (centres undefined),-62.3,"18.4 µM [falling, partial curve]","25.9 µM [falling, partial curve, poor fit]"
O=C(O)c1ccc(/C=C/c2nc3ccccc3c(=O)n2-c2ccc(Br)cc2)cc1,26.1,"29.1 µM [falling, single point]","0.651 µM [rising, full curve, poor fit]"
Nc1ccc(C2(c3ccc(N)cc3)c3ccccc3-c3ccccc32)cc1,-16.9,"2.31 µM [rising, partial curve, poor fit]",–
Cc1cc(NC(=O)CCl)no1,-35.7,"11.6 µM [falling, partial curve]","10.3 µM [falling, partial curve]"

SMILES,cell number change [%],AC50 [1],AC50 [2]
CC(Cc1ccccc1)[n+]1cc(/N=C(\[O-])Nc2ccccc2)on1 (centres undefined),71.9,"0.13 µM [rising, full curve, poor fit]","0.411 µM [rising, partial curve]"
CC(C)CNC(=O)c1c(N)n(Cc2ccc3c(c2)OCO3)c2nc3ccccc3nc12,-75.6,"1.16 µM [rising, partial curve]",–
CCCC(C)C1C(C#N)=C(N)Oc2c1c(=O)oc1ccccc21 (centres undefined),1.41,"3.26 µM [rising, partial curve]",–
Cc1nn(CCC#N)c2c1P(=S)(N1CCCC1)OC(c1ccc(F)cc1)=N2 (centres undefined),2.69,"0.146 µM [rising, full curve, poor fit]",–
O=C1NC(=O)N(c2ccc(F)cc2)C(=O)/C1=C/c1ccsc1,-16,–,–
CN(C)c1cc[n+](CC(O)C[n+]2ccc(N(C)C)cc2)cc1,0.328,"1.84 µM [rising, full curve, poor fit]",–
Cc1cc(OC(=O)c2ccco2)c2c3c(c(=O)oc2c1)CCCC3,–,"0.731 µM [falling, full curve]","0.58 µM [falling, full curve, poor fit]"
CN1CCN(c2nc([N+](=O)[O-])nn2C)CC1,10.2,"1.64 µM [rising, partial curve]",–
NP(=O)(OCCCCc1ccccc1)Oc1ccccc1Cl (centres undefined),17.5,"23.1 µM [rising, partial curve, poor fit]",–
COC(C)(C)CCCC(C)C/C=C/C(C)=C/C(=O)OC(C)C (centres undefined),-11.6,"16.4 µM [rising, partial curve, poor fit]",–
COc1ccc(Br)cc1CN1CCN(CCO)CC1,-1.14,"4.11 µM [falling, partial curve]",–
COC(=O)C1=C(c2ccc(Cl)c(C(F)(F)F)c2)C[C@@H]2CC[C@H]1N2C(=O)NCc1ccc2c(c1)OCO2,-32.8,"0.651 µM [rising, full curve]","0.092 µM [falling, full curve, poor fit]"
O=P(OC1CCCCC1)(OC1CCCCC1)C(Nc1ccccc1)c1cccnc1 (centres undefined),–,–,"0.731 µM [rising, full curve, poor fit]"
CCn1ccnc1CN1CCCC(C(=O)c2ccc(OC)cc2OC)C1 (centres undefined),-28.2,"0.82 µM [falling, full curve, poor fit]",–
Cc1nn(Cc2ccccc2)c(C)c1C(=O)OCC(=O)NCc1ccco1,10.9,"0.651 µM [rising, full curve]",–
CC[N+](CC)(CCCCS(=O)(=O)[O-])CCNP1(=O)C=C(c2ccccc2)OC(c2ccccc2)=C1,–,–,"6.51 µM [falling, single point]"
Cn1ccnc1P(=S)(c1nccn1C)N1CCOCC1,4.81,"4.61 µM [falling, single point]",–

# Filtered by structure, the entries above with a nitro group on carbon (2)
SMILES,cell number change [%],AC50 [1],AC50 [2]
O=Cc1cn(Cc2ccc([N+](=O)[O-])cc2)c2ccccc12,4.7,"5.8 µM [rising, single point]",–
CN1CCN(c2nc([N+](=O)[O-])nn2C)CC1,10.2,"1.64 µM [rising, partial curve]",–
